Test results: patent US8455398B2, “Amide compounds, preparation methods and uses thereof” (Sinochem Corporation, priority 2008, dated 2013)
Some entries share one result that the patent states for a list of compounds.

Assays:
grey mould = assay: Fungicidal activity in vivo, grey mould; conditions: 400 ppm, plants sprayed, inoculated after 24 hours
cucumber anthracnose = assay: Fungicidal activity in vivo, cucumber anthracnose; conditions: 25 ppm, plants sprayed, inoculated after 24 hours
Method: Determine the fungicidal activities of the compounds of the present invention against plant diseases, carried by following procedure:
Determination of Fungicidal Activity In Vivo:
Compounds were dissolved in acetone, and diluted to required concentration with water containing 0.1% of tween 80. Plants were sprayed by a sprayer. After 24 hours, plants were innoculated and then transferred into a dew chamber for infection. After the infection period normally one week), the plants were scored for disease control.

[1] = tested on: lesser army worm (Spodoptera exiqua); assay: Insecticidal activity, spray test, lesser armyworm; assay type: in vivo; conditions: mortality after two to three days
Method: Determination of insecticidal and acaricidal activity of selected compounds were carried out by following procedure:
Compounds were dissolved in mixed solvent (acetone:methanol=1:1), and diluted to required concentration with water containing 0.1% of tween 80.
The armyworm (Leucania separata), the second stage Juvenile of diamond backmoth (Plutella xylostella), lesser army worm (Spodoptera exiqua), green peach aphids (Myzus persicae) and mite (Tetranychus cinnabarinus) were used in biological test. The test was employed either spraying by airbrush. A test solution (0.5 ml) was sprayed at the pressure of 10 psi (0.7 kg/cm^2). Percent mortality was determined after two to three days.

cucumber downy mildew = assay: Fungicidal activity in vivo, cucumber downy mildew; conditions: 400 ppm, plants sprayed, inoculated after 24 hours

Compound	control of grey mould (grey mould)	control of cucumber anthracnose (cucumber anthracnose)	control of lesser armyworm ([1]; 1 ppm)	control of lesser armyworm ([1]; 10 ppm)	control of cucumber downy mildew (cucumber downy mildew)
Cc1cc(C(=O)N2CCN(c3ncc(C#N)cc3Cl)CC2)ccc1NC(=O)c1cc(Br)nn1-c1ncccc1Cl [303 in Table 96]	more than 70%	–	–	–	–
Cc1cc(Cl)cc(C(=O)NC(C)CNc2ncccc2Cl)c1NC(=O)c1cc(Br)nn1-c1ncccc1Cl (centres unmarked) [Table 179-304]	more than 70%	more than 90%	–	–	–
Cc1cc(Cl)cc(C(=O)NCCNc2ncc(C#N)cc2Cl)c1NC(=O)c1cc(Br)nn1-c1ncccc1Cl [Table 182-83]	–	–	more than 50%	more than 75%	–
Cc1cc(Cl)cc(C(=O)NCCCNc2ncc(C#N)cc2Cl)c1NC(=O)c1cc(Br)nn1-c1ncccc1Cl [Table 182-199]	–	–	more than 50%	more than 75%	–
Cc1cc(Cl)cc(C(=O)NCCNc2ncc(Cl)cc2Cl)c1NC(=O)c1cc(Br)nn1-c1ncccc1Cl [Table 211-83]	–	–	–	more than 75%	more than 98%
Cc1cc(Cl)cc(C(=O)NCCCNc2ncc(Cl)cc2Cl)c1NC(=O)c1cc(Br)nn1-c1ncccc1Cl [Table 211-199]	–	–	more than 50%	–	more than 98%
